Laboratory results published in the supplement of paper PMC12067093, “Discovery and optimisation of a covalent ligand for TRIM25 and its application to targeted protein ubiquitination” (Chemical Science, 2025).
The list shows a part of the results.

Amino acid sequences for entries named in this document (tags omitted). A change or cut given only in a name is not applied to a line headed by its entry.
UniProt O95487: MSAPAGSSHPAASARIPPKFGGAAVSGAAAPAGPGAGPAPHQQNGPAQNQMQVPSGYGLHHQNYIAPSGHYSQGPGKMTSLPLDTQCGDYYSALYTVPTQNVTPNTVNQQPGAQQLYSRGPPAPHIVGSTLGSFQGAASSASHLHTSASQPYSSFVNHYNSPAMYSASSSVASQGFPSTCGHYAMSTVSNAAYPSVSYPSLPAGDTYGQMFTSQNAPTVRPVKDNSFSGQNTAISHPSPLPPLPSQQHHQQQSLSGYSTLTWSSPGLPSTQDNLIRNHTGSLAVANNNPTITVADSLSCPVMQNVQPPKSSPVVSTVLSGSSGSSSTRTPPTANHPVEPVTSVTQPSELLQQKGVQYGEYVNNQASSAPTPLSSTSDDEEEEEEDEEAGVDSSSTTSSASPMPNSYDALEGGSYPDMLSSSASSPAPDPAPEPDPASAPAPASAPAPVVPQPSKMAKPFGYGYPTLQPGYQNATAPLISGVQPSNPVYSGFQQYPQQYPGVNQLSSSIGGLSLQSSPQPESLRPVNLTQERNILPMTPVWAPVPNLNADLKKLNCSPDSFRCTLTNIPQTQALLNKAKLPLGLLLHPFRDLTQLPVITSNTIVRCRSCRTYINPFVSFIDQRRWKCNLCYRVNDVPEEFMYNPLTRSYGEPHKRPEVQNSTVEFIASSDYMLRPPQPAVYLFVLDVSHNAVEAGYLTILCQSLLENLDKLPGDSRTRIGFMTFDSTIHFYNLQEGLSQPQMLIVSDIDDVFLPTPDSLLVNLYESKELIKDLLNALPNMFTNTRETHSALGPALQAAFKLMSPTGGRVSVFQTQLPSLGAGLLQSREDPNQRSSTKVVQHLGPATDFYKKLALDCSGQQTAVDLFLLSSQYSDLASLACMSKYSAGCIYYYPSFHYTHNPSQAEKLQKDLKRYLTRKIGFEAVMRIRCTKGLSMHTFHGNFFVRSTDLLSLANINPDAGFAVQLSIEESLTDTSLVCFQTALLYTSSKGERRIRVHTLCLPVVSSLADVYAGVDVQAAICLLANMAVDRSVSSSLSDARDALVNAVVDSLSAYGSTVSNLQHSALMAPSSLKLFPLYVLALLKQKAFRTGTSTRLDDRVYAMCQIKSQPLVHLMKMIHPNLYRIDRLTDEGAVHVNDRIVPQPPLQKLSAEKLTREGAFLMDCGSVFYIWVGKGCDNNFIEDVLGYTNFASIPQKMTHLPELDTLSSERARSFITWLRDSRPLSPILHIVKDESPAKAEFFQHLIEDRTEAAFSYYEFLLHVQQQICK
UniProt O60613, whole entry: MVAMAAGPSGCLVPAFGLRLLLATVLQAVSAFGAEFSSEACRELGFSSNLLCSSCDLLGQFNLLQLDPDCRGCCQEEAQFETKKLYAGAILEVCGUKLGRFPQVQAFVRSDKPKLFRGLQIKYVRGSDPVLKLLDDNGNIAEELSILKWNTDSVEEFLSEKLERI
UniProt Q9UBV2: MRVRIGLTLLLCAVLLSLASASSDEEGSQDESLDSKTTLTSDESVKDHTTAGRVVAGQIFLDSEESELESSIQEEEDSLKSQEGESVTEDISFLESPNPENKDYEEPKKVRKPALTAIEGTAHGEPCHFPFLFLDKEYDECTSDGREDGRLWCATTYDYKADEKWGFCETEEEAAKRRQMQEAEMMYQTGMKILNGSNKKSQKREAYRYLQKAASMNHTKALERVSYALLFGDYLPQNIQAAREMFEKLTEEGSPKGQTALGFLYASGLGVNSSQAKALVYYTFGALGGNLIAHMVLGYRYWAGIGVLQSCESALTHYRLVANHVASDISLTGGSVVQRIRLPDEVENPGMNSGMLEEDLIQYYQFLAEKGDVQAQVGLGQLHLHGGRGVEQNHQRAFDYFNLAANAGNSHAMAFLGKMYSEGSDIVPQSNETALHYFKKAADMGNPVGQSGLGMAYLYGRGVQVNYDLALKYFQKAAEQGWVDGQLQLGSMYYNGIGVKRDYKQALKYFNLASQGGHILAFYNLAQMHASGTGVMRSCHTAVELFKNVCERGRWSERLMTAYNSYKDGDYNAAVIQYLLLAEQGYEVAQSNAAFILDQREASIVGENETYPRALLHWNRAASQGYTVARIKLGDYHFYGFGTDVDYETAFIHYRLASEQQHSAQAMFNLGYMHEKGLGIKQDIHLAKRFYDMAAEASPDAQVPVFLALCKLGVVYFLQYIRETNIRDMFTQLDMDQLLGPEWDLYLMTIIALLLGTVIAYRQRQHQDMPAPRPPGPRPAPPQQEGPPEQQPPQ
UniProt Q6UVJ0: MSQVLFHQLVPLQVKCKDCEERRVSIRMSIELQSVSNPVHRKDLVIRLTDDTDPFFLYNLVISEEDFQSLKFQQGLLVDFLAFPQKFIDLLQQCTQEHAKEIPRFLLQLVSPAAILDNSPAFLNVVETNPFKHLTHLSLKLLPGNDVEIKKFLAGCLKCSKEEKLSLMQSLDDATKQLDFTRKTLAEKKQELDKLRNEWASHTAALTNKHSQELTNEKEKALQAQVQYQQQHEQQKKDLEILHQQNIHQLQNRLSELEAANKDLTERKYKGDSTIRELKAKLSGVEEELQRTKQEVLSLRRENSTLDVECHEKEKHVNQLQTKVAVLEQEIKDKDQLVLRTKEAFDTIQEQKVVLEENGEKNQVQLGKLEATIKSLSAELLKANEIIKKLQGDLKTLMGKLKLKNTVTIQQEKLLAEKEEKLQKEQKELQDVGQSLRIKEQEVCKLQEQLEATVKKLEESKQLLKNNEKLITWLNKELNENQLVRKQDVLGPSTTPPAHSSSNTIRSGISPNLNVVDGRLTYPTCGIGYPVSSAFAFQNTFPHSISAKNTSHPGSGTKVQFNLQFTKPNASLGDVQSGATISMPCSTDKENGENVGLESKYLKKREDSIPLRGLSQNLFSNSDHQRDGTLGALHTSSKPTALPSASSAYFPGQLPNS
UniProt P53992: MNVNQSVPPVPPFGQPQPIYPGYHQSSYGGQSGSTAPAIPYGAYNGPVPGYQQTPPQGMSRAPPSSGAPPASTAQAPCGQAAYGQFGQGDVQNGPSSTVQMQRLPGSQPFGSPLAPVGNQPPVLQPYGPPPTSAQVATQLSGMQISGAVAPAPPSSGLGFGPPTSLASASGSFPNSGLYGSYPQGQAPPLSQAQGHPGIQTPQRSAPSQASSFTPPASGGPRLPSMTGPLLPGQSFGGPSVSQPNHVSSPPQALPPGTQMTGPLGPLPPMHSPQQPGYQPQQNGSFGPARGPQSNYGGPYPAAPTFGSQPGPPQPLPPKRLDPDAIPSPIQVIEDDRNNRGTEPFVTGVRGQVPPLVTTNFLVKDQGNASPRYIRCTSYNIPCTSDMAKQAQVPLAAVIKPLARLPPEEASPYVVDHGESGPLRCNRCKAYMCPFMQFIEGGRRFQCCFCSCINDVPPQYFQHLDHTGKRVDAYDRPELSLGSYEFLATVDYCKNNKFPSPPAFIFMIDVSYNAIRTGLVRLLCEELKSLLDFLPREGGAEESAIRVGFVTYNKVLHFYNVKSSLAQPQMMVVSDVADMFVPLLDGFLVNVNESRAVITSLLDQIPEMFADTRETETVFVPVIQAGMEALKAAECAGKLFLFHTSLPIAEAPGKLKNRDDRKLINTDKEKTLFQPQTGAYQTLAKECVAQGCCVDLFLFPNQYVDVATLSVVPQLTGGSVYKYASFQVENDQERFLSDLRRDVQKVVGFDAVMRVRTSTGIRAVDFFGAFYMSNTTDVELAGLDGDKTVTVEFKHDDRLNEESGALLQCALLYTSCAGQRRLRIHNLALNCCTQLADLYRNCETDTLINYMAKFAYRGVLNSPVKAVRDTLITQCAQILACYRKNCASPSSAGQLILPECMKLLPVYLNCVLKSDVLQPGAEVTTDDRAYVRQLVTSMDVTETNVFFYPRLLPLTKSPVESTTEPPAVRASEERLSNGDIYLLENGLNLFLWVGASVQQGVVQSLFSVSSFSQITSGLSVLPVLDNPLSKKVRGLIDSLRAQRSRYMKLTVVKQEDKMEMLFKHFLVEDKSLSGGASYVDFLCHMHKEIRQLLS
UniProt Q96NL6: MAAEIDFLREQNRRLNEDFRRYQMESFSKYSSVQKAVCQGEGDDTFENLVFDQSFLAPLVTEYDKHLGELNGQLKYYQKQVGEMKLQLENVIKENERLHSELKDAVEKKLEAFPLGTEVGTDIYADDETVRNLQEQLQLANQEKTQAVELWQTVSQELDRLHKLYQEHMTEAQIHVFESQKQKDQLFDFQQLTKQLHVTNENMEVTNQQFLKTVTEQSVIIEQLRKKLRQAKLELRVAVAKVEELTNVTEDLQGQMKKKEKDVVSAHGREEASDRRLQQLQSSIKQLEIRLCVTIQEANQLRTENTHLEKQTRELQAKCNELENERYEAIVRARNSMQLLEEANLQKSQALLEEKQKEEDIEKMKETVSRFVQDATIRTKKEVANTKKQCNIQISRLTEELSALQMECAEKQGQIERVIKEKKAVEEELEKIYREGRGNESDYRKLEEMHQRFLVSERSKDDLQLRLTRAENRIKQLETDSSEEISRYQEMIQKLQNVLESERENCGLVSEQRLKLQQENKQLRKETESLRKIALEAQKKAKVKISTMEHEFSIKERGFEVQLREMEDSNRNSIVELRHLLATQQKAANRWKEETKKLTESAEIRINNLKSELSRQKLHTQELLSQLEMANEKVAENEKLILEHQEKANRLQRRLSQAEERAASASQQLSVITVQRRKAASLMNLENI
UniProt Q9H3S1: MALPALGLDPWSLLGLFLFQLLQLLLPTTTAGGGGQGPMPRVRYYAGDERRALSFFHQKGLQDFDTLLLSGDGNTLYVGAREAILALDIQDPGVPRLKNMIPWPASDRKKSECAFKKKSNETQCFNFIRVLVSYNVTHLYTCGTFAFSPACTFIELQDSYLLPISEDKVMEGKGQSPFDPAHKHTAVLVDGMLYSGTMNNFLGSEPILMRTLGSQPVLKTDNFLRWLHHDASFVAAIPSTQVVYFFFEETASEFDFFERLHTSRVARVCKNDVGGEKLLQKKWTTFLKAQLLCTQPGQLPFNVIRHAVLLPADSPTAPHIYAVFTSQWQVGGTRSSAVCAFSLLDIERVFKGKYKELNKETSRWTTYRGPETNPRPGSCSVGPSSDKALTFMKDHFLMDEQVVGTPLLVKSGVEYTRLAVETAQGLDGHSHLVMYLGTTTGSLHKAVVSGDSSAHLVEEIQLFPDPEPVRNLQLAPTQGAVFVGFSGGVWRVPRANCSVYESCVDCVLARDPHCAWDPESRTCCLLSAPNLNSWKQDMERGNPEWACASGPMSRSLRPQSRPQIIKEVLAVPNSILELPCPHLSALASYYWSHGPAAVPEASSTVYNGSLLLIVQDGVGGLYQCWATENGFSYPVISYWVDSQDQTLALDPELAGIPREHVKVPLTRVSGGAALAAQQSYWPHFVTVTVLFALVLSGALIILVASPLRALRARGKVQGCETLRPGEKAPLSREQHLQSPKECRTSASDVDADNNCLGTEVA
UniProt Q96KG9: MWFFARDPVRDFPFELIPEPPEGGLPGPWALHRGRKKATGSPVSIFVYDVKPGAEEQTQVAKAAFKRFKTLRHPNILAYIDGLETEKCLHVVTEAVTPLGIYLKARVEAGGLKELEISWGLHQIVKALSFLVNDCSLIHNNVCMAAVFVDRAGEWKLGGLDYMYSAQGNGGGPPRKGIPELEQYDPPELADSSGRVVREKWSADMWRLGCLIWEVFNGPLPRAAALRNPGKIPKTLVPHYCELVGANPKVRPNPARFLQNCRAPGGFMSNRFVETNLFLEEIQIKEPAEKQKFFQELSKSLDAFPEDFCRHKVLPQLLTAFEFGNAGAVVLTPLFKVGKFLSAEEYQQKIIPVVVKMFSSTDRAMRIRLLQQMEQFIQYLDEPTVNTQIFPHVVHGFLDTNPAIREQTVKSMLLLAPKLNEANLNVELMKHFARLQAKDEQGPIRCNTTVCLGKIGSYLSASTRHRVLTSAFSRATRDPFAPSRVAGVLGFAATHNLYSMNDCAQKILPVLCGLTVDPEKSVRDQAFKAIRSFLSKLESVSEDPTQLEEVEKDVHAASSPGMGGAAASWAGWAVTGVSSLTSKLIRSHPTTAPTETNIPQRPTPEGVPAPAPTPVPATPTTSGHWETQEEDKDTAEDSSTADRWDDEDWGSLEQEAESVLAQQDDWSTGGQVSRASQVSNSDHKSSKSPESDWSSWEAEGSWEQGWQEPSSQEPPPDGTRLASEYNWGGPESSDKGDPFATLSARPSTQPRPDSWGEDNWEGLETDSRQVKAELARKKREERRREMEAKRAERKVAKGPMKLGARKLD

Each target was assayed with CC1Cc2ccccc2N1C(=O)C1CCCN(C1)C(=O)CCl (mixture of isomers) [TRIM25 ligand 11 (diastereomer mixture)] (assay: probe-labelled cysteine peptide fold change vs DMSO (competition) (log2 fold change); higher = less target engagement (more negative = stronger competition)). Conditions: 10 µM; THP-1; incubation time: 4 h.
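Also: competitive chemoproteomic profiling in live THP-1 cells with an iodoacetamide desthiobiotin (IA-DTB) probe, comparing probe-labelled peptide intensities in compound-treated cells against DMSO-treated controls.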

| Target | probe-labelled cysteine peptide fold change |
| --- | --- |
| SCAF11_Q99590_1020_HRNDCPNWITEK (UniProt Q99590) | -0.0927 |
| SEC24B_O95487_887_YSAGCIYYYPSFHYTHNPSQAEK (UniProt O95487) | 0.267 |
| SCP2_P22307_115_QLIQGGVAECVLALGFEK (UniProt P22307) | -2.21 |
| SDR39U1_Q9NRG7_78_ITWDELAASGLPSCDAAVNLAGENILNPLRR (UniProt Q9NRG7) | -0.0975 |
| SELENOF_O60613_73_GCCQEEAQFETK (UniProt O60613) | -0.00801 |
| SEC24B_O95487_1267_TEAAFSYYEFLLHVQQQICK (UniProt O95487) | 0.224 |
| SBNO2_Q9Y2G9_908_ALHCVLTTILSQTENK (UniProt Q9Y2G9) | 0.0964 |
| SEC13_P55735_153_KINNAHTIGCNAVSWAPAVVPGSLIDHPSGQK (UniProt P55735) | 0.32 |
| SCFD2_Q8WU76_507_ALAQVFCEESGLSPLLQK (UniProt Q8WU76) | 0.0961 |
| SEC63_Q9UGP8_490_EQSICAAEEQPAEDGQGETNK (UniProt Q9UGP8) | 0.0683 |
| SCAF8_Q9UPN6_1170_DDRDFDFCR (UniProt Q9UPN6) | -0.0203 |
| SEL1L_Q9UBV2_141_EYDECTSDGR (UniProt Q9UBV2) | 0.0461 |
| SASS6_Q6UVJ0_310_ENSTLDVECHEK (UniProt Q6UVJ0) | 0.07 |
| SATB1_Q01826_78_GTMLPVFCVVEHYENAIEYDCKEEHAEFVLVRK (UniProt Q01826) | -0.205 |
| SEC24C_P53992_832_IHNLALNCCTQLADLYR (UniProt P53992) | 0.309 |
| SAMHD1_Q9Y3Z3_522_NPIDHVSFYCK (UniProt Q9Y3Z3) | -0.0047 |
| SCRIB_Q14160_1612_PSPGAVGPEDVALCSSR (UniProt Q14160) | -0.0317 |
| SEC31A_O94979_216_MHCSGLAWHPDVATQMVLASEDDRLPVIQMWDLR (UniProt O94979) | 0.0315 |

| Target | probe-labelled cysteine peptide fold change |
| --- | --- |
| SCAF11_Q99590_566_VYQPVSCPLSDLSENVESVVNEEK (UniProt Q99590) | -0.0494 |
| SEC24B_O95487_562_CTLTNIPQTQALLNK (UniProt O95487) | 0.0185 |
| SCLT1_Q96NL6_506_LQNVLESERENCGLVSEQR (UniProt Q96NL6) | -0.159 |
| SBNO1_A3KN83_605_YLCIASK (UniProt A3KN83) | -0.147 |
| SEC13_P55735_153_INNAHTIGCNAVSWAPAVVPGSLIDHPSGQK (UniProt P55735) | 0.356 |
| SEMA4D_Q92854_512_HGTCEDCVLAR (UniProt Q92854) | 0.254 |
| SEMA4A_Q9H3S1_514_DPHCAWDPESR (UniProt Q9H3S1) | 0.171 |
| SCYL3_Q8IZE3_184_SIQSIRDPASIPPEEMSPEFTTLPECHGHAR (UniProt Q8IZE3) | 0.199 |
| SCAF11_Q99590_450_SCNEQIEESEK (UniProt Q99590) | -0.127 |
| SCLT1_Q96NL6_319_CNELENERYEAIVR (UniProt Q96NL6) | 0.0182 |
| SCYL1_Q96KG9_451_CNTTVCLGK (UniProt Q96KG9) | -0.0956 |
| SATB1_Q01826_78_KGTMLPVFCVVEHYENAIEYDCKEEHAEFVLVR (UniProt Q01826) | -0.0424 |
| SBF1_O95248_1197_FPVVCWR (UniProt O95248) | -0.118 |
| SCRIB_Q14160_1082_DATHQEAVSALLRPCLELSLLVR (UniProt Q14160) | 0.24 |
| SEC24C_P53992_809+816_HDDRLNEESGALLQCALLYTSCAGQR (UniProt P53992) | 0.255 |
| SENP6_Q9GZR1_127_KLSENTQNTSLCSGTVVHGR (UniProt Q9GZR1) | -0.0216 |
| SEC23IP_Q9Y6Y8_814_IDENYSLPTCK (UniProt Q9Y6Y8) | 0.128 |
| SEC23B_Q15437_40_MVVPLACLLTPLK (UniProt Q15437) | -0.0615 |

Same assay, conditions: 50 µM; THP-1; incubation time: 4 h

| Target | probe-labelled cysteine peptide fold change |
| --- | --- |
| SCAF11_Q99590_1020_HRNDCPNWITEK (UniProt Q99590) | -0.0868 |
| SEC24B_O95487_887_YSAGCIYYYPSFHYTHNPSQAEK (UniProt O95487) | -0.0661 |
| SCP2_P22307_115_QLIQGGVAECVLALGFEK (UniProt P22307) | -2.14 |
| SDR39U1_Q9NRG7_78_ITWDELAASGLPSCDAAVNLAGENILNPLRR (UniProt Q9NRG7) | 0.0842 |
| SELENOF_O60613_73_GCCQEEAQFETK (UniProt O60613) | 0.19 |
| SEC24B_O95487_1267_TEAAFSYYEFLLHVQQQICK (UniProt O95487) | 0.163 |
| SBNO2_Q9Y2G9_908_ALHCVLTTILSQTENK (UniProt Q9Y2G9) | 0.236 |
| SEC13_P55735_153_KINNAHTIGCNAVSWAPAVVPGSLIDHPSGQK (UniProt P55735) | -0.0965 |
| SCFD2_Q8WU76_507_ALAQVFCEESGLSPLLQK (UniProt Q8WU76) | 0.0426 |
| SEC63_Q9UGP8_490_EQSICAAEEQPAEDGQGETNK (UniProt Q9UGP8) | -0.228 |
| SCAF8_Q9UPN6_1170_DDRDFDFCR (UniProt Q9UPN6) | -0.456 |
| SEL1L_Q9UBV2_141_EYDECTSDGR (UniProt Q9UBV2) | 0.103 |
| SASS6_Q6UVJ0_310_ENSTLDVECHEK (UniProt Q6UVJ0) | 0.16 |
| SATB1_Q01826_78_GTMLPVFCVVEHYENAIEYDCKEEHAEFVLVRK (UniProt Q01826) | 0.0349 |
| SEC24C_P53992_832_IHNLALNCCTQLADLYR (UniProt P53992) | 0.237 |
| SAMHD1_Q9Y3Z3_522_NPIDHVSFYCK (UniProt Q9Y3Z3) | -0.141 |
| SCRIB_Q14160_1612_PSPGAVGPEDVALCSSR (UniProt Q14160) | -0.0855 |
| SEC31A_O94979_216_MHCSGLAWHPDVATQMVLASEDDRLPVIQMWDLR (UniProt O94979) | -0.134 |

| Target | probe-labelled cysteine peptide fold change |
| --- | --- |
| SCAF11_Q99590_566_VYQPVSCPLSDLSENVESVVNEEK (UniProt Q99590) | -0.138 |
| SEC24B_O95487_562_CTLTNIPQTQALLNK (UniProt O95487) | 0.218 |
| SCLT1_Q96NL6_506_LQNVLESERENCGLVSEQR (UniProt Q96NL6) | 0.0107 |
| SBNO1_A3KN83_605_YLCIASK (UniProt A3KN83) | 0.204 |
| SEC13_P55735_153_INNAHTIGCNAVSWAPAVVPGSLIDHPSGQK (UniProt P55735) | 0.08 |
| SEMA4D_Q92854_512_HGTCEDCVLAR (UniProt Q92854) | 0.105 |
| SEMA4A_Q9H3S1_514_DPHCAWDPESR (UniProt Q9H3S1) | 0.42 |
| SCYL3_Q8IZE3_184_SIQSIRDPASIPPEEMSPEFTTLPECHGHAR (UniProt Q8IZE3) | 0.088 |
| SCAF11_Q99590_450_SCNEQIEESEK (UniProt Q99590) | -0.271 |
| SCLT1_Q96NL6_319_CNELENERYEAIVR (UniProt Q96NL6) | 0.00647 |
| SCYL1_Q96KG9_451_CNTTVCLGK (UniProt Q96KG9) | -0.0711 |
| SATB1_Q01826_78_KGTMLPVFCVVEHYENAIEYDCKEEHAEFVLVR (UniProt Q01826) | -0.0291 |
| SBF1_O95248_1197_FPVVCWR (UniProt O95248) | 0.038 |
| SCRIB_Q14160_1082_DATHQEAVSALLRPCLELSLLVR (UniProt Q14160) | -0.0877 |
| SEC24C_P53992_809+816_HDDRLNEESGALLQCALLYTSCAGQR (UniProt P53992) | -0.0483 |
| SENP6_Q9GZR1_127_KLSENTQNTSLCSGTVVHGR (UniProt Q9GZR1) | -0.0121 |
| SEC23IP_Q9Y6Y8_814_IDENYSLPTCK (UniProt Q9Y6Y8) | 0.00562 |
| SEC23B_Q15437_40_MVVPLACLLTPLK (UniProt Q15437) | -0.0659 |
